In this assay the target is tissue-type plasminogen activator, tPA (Genentech) (human) (UniProt P00750). In words: cleavage of purified baculovirus BAIT on interaction with tPA; N-terminal sequencing.

Chains of the proteins cited; added tags and fusions are not shown. Residues count along the entry.
UniProt P00750, residues 36-562: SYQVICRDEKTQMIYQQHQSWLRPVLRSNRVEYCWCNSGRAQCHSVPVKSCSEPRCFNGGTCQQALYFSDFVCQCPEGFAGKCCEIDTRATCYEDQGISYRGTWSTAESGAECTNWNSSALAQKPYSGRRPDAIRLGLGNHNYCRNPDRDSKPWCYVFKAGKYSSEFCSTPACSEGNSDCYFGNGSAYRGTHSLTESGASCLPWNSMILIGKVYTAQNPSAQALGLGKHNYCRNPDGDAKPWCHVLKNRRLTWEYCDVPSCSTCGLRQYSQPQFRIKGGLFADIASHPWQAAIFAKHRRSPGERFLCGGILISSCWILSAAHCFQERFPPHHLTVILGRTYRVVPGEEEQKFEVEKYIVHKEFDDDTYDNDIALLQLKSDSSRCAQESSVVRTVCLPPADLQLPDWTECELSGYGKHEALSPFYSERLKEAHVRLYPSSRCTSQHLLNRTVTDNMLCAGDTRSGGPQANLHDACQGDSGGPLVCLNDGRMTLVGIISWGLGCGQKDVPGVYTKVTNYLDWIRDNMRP

No constants are given. Whether binding was seen depends on the method and setting. Some entries that bind do so weakly or less than the wild type.

B1: second species of baculovirus-expressed mature BAIT lacking one additional N-terminal residue (N terminus Thr) (protein)
chain: TFPEEAIADLSVNMYNRLRATGEDENILFSPLSIALAMGMMELGAQGSTQKEIRHSMGYDSLKNGEEFSFLKEFSNMVTAKESQYVMKIANSLFVQNGFHVNEEFLQMMKKYFNAAVNHVDFSQNVAVANYINKWVENNTNNLVKDLVSPRDFDAATYLALINAVYFKGNWKSQFRPENTRTFSFTKDDESEVQIPMMYQQGEFYYGEFSDGSNEAGGIYQVLEIPYEGDEISMMLVLSRQEVPLATLEPLVKAQLVEEWANSVKKQKVEVYLPRFTVEQEIDLKDVLKALGITEIFIKDANLTGLSDNKEIFLSKAIHKSFLEVNEEGSEAAAVSGMIAISRMAVLYPQVIVDHPFFFLIRNRRTGTILFMGRVMHPETMNTSGHDFEEL
modifications: glycosylated (positions not stated)
Consider B1, for which the binding entry was “binds”.
